PubChem BioAssay AID1508587, Peter MacCallum Cancer Centre – 2020
In all, the deposit lists about 1,600 reagents; this is a random part of them. 623 of all reagents (39%) were called active. 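Calls are for each duplex; lactate ratios contain extreme outliers.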 Unmarked entries are inactive. Reagents against one gene are numbered here. No sequences are given here.

- Screen: 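Follow-up of vemurafenib sensitisers scored by lactate made per cell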 (follow-up of hits)
- Cells: human WM266.4 melanoma cells with a BRAF V600 mutation
- Reagents: single siRNA against human genes, 25 nM
- Timing: 96 h
- Treatment: vemurafenib 300 nM (about IC25), given 48 h after transfection for 48 h
- Detection: 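Medium lactate read by absorbance over DAPI-counted nuclei; ratio with versus without vemurafenib, set against non-targeting siRNA, averaged over 2 replicates; cell number also recorded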
- Direction: lactate per cell, drug vs no drug: higher = less drug-induced drop in lactate per cell; lactate per cell with vemurafenib: higher = more lactate per cell under drug; lactate per cell without drug: higher = more lactate per cell without drug; cell growth with vemurafenib and cell growth without drug: higher = more cell growth over 48 h
- Active means: 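Enhancer call for any duplex whose drug versus no-drug per-cell lactate ratio is below 0.55 (2 SD beneath non-targeting average); genes confirmed when at least 2 of their 4 duplexes qualify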

| gene | siRNA no. | lactate per cell, drug vs no drug | lactate per cell with vemurafenib | lactate per cell without drug | cell growth with vemurafenib | cell growth without drug |
| --- | --- | --- | --- | --- | --- | --- |
| MMP3 (matrix metallopeptidase 3) | 1 | 0.49 (active) | 2.04 | 2.46 | 0.41 | 0.21 |
| MMP3 (matrix metallopeptidase 3) | 2 | 0.48 (active) | 1.34 | 1.62 | 0.83 | 0.57 |
| MMP3 (matrix metallopeptidase 3) | 3 | 0.5 (active) | 0.7 | 0.82 | 0.98 | 1.19 |
| MMP3 (matrix metallopeptidase 3) | 4 | 0.32 (active) | 0.56 | 1.06 | 0.28 | 0.18 |
| KDM3A (lysine demethylase 3A) | 1 | 0.68 | 2.01 | 1.85 | 0.38 | 0.33 |
| KDM3A (lysine demethylase 3A) | 2 | 0.59 | 0.9 | 0.92 | 1.28 | 1.29 |
| KDM3A (lysine demethylase 3A) | 3 | 0.72 | 2.25 | 1.92 | 0.16 | 0.12 |
| KDM3A (lysine demethylase 3A) | 4 | 0.74 | 1.09 | 0.92 | 0.77 | 0.89 |
| FRG1 (FSHD region gene 1) | 1 | 1.16 | 1.97 | 1.23 | -0.1 | 0.07 |
| FRG1 (FSHD region gene 1) | 2 | 0.55 | 1.48 | 1.93 | 0.43 | 0.33 |
| FRG1 (FSHD region gene 1) | 3 | 0.57 | 0.92 | 1.14 | 0.73 | 0.64 |
| FRG1 (FSHD region gene 1) | 4 | 0.75 | 1.68 | 1.66 | 0.47 | 0.36 |
| RBM7 (RNA binding motif protein 7) | 1 | 0.29 (active) | 0.47 | 1.1 | 0.2 | 0.29 |
| RBM7 (RNA binding motif protein 7) | 2 | 0.96 | 2.1 | 1.5 | 0.21 | 0.28 |
| RBM7 (RNA binding motif protein 7) | 3 | 1.07 | 2.84 | 1.82 | -0.18 | 0.06 |
| RBM7 (RNA binding motif protein 7) | 4 | 0.88 | 2.56 | 2.02 | 0.04 | 0.12 |
| FOLH1B (folate hydrolase 1B (pseudogene)) | 1 | 0.54 (active) | 1.48 | 1.74 | 0.38 | 0.34 |
| FOLH1B (folate hydrolase 1B (pseudogene)) | 2 | 0.64 | 2 | 2 | 0.09 | 0.15 |
| FOLH1B (folate hydrolase 1B (pseudogene)) | 3 | 0.62 | 0.74 | 0.74 | 0.28 | 0.37 |
| FOLH1B (folate hydrolase 1B (pseudogene)) | 4 | 0.68 | 1.04 | 0.99 | 0.85 | 1.02 |
| LZTS3 (leucine zipper tumor suppressor family member 3) | 1 | 0.93 | 2.58 | 1.82 | 0.04 | 0.03 |
| LZTS3 (leucine zipper tumor suppressor family member 3) | 2 | 0.68 | 0.96 | 0.92 | 1.11 | 1.13 |
| LZTS3 (leucine zipper tumor suppressor family member 3) | 3 | 0.68 | 1.07 | 1.03 | 1.06 | 0.97 |
| LZTS3 (leucine zipper tumor suppressor family member 3) | 4 | 0.72 | 1.1 | 1 | 0.89 | 0.85 |
| FEZF2 (FEZ family zinc finger 2) | 1 | 0.5 (active) | 0.98 | 1.34 | 0.39 | 0.31 |
| FEZF2 (FEZ family zinc finger 2) | 2 | 0.63 | 0.99 | 1.09 | 0.91 | 0.7 |
| FEZF2 (FEZ family zinc finger 2) | 3 | 0.46 (active) | 0.16 | 0.29 | 0.42 | 0.66 |
| FEZF2 (FEZ family zinc finger 2) | 4 | 0.52 (active) | 0.83 | 1.08 | 0.95 | 0.8 |
| POM121L12 (POM121 transmembrane nucleoporin like 12) | 1 | 0.44 (active) | 0.48 | 0.74 | 0.36 | 0.38 |
| POM121L12 (POM121 transmembrane nucleoporin like 12) | 2 | 0.56 | 1.98 | 2.36 | 0.11 | 0.06 |
| POM121L12 (POM121 transmembrane nucleoporin like 12) | 3 | 0.86 | 2.26 | 1.77 | 0.11 | 0.12 |
| POM121L12 (POM121 transmembrane nucleoporin like 12) | 4 | 0.72 | 0.66 | 0.62 | -0.1 | 0.65 |
| DPP7 (dipeptidyl peptidase 7) | 1 | 1.1 | 2.16 | 1.16 | -0.11 | 0.22 |
| DPP7 (dipeptidyl peptidase 7) | 2 | 0.51 (active) | 0.94 | 1.1 | 0.73 | 0.71 |
| DPP7 (dipeptidyl peptidase 7) | 3 | 0.64 | 2.47 | 2.26 | 0.2 | 0.21 |
| DPP7 (dipeptidyl peptidase 7) | 4 | 0.63 | 2.68 | 2.5 | 0.39 | 0.23 |
| NSRP1 (nuclear speckle splicing regulatory protein 1) | 1 | 0.56 | 1.34 | 1.47 | 0.63 | 0.43 |
| NSRP1 (nuclear speckle splicing regulatory protein 1) | 2 | 0.64 | 1.91 | 1.85 | 0.08 | 0.15 |
| NSRP1 (nuclear speckle splicing regulatory protein 1) | 3 | 0.48 (active) | 0.69 | 0.92 | 0.73 | 0.69 |
| NSRP1 (nuclear speckle splicing regulatory protein 1) | 4 | 0.56 | 4.62 | 5.21 | -0.02 | -0.02 |
| LOC90462 (retired record) | 1 | 0.57 | 1.34 | 1.6 | 0.72 | 0.52 |
| LOC90462 (retired record) | 2 | 0.6 | 1.44 | 1.6 | 0.01 | 0.11 |
| LOC90462 (retired record) | 3 | 0.29 (active) | 0.3 | 0.7 | 0.17 | 0.36 |
| LOC90462 (retired record) | 4 | 0.52 (active) | 0.74 | 0.98 | 0.78 | 0.51 |
| HDHD2 (haloacid dehalogenase like hydrolase domain containing 2) | 1 | 0.66 | 0.92 | 0.82 | 0.19 | 0.34 |
| HDHD2 (haloacid dehalogenase like hydrolase domain containing 2) | 2 | 0.56 | 1.17 | 1.22 | 0.61 | 0.55 |
| HDHD2 (haloacid dehalogenase like hydrolase domain containing 2) | 3 | 0.62 | 2.42 | 2.32 | 0.12 | 0.07 |
| HDHD2 (haloacid dehalogenase like hydrolase domain containing 2) | 4 | 0.64 | 1 | 0.92 | 0.65 | 1 |
| U2SURP (U2 snRNP associated SURP domain containing) | 1 | 0.52 (active) | 1.08 | 1.51 | 0.5 | 0.47 |
| U2SURP (U2 snRNP associated SURP domain containing) | 2 | 0.56 | 2.7 | 3.44 | 0.15 | 0.13 |
| U2SURP (U2 snRNP associated SURP domain containing) | 3 | 0.82 | 1.02 | 0.9 | 0.94 | 1.14 |
| U2SURP (U2 snRNP associated SURP domain containing) | 4 | 0.7 | 1.19 | 1.23 | 0.14 | 0.44 |
